Source: PubChem BioAssay AID1159578 (Peter MacCallum Cancer Centre, 2015)

- Assay: 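Genome-wide hunt for genes controlling movement of lymphatic endothelial cells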 (primary screen)
- Cell system: human lymphatic endothelial cells
- Knock-down reagent: siRNA pool against human genes, 40 nM
- Timing: 48 h after transfection
- Detection: 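Cells stained with dye and imaged after a scratch; covered wound area and nuclei counted, duplicates averaged, migration set against mock wells and turned into a robust z-score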
- Direction: migration robust z-score: higher = faster migration into the scratch; nuclei per well: higher = more cells in the well
- Hit rule: 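Migration changed when robust z exceeds 2 or falls below -2 and mean nuclei number is at least 3300; otherwise not called changed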
- Calls: active = migration changed; inactive = no migration change, or too few cells
In all, the deposit lists about 18,000 reagents; below is a random part of them. About 1,030 of them (5.7%) were called active. 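Inactive calls also include pools with fewer than 3300 nuclei, whose migration was not assessed.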 Raw values vary from plate to plate and are shown uncorrected. Not all columns of the deposit are shown. Reagent sequences are not shown.

MEN1 (GeneID 4221) — migration robust z-score: -1.03; nuclei per well, duplicate mean: 4620; call: inactive
TMEM203 (GeneID 94107) — migration robust z-score: -0.57; nuclei per well, duplicate mean: 5940; call: inactive
MYH14 (GeneID 79784) — migration robust z-score: -1.89; nuclei per well, duplicate mean: 5602; call: inactive
ELP6 (GeneID 54859) — migration robust z-score: -1.57; nuclei per well, duplicate mean: 5468; call: inactive
VPS45 (GeneID 11311) — migration robust z-score: -3.07; nuclei per well, duplicate mean: 2236; call: inactive
CWH43 (GeneID 80157) — migration robust z-score: -1.21; nuclei per well, duplicate mean: 5222; call: inactive
PANK2 (GeneID 80025) — migration robust z-score: -1.22; nuclei per well, duplicate mean: 3589; call: inactive
CD300E (GeneID 342510) — migration robust z-score: -2.02; nuclei per well, duplicate mean: 6248; call: active
NKAPL (GeneID 222698) — migration robust z-score: -1.12; nuclei per well, duplicate mean: 5528; call: inactive
ZBTB18 (GeneID 10472) — migration robust z-score: 1.06; nuclei per well, duplicate mean: 6820; call: inactive
CCDC116 (GeneID 164592) — migration robust z-score: -0.46; nuclei per well, duplicate mean: 4764; call: inactive
SGO1 (GeneID 151648) — migration robust z-score: 0.19; nuclei per well, duplicate mean: 3996; call: inactive

Look-ups from above:
For “nuclei per well, duplicate mean”, MEN1 (GeneID 4221) shows 4620
VPS45 (GeneID 11311), call → inactive

Further records:
ATP2A2 (GeneID 488) — migration robust z-score: 0.05; nuclei per well, duplicate mean: 5553; call: inactive
SPRTN (GeneID 83932) — migration robust z-score: 1.25; nuclei per well, duplicate mean: 7276; call: inactive
DOCK9 (GeneID 23348) — migration robust z-score: 0.16; nuclei per well, duplicate mean: 6040; call: inactive
CCNT1 (GeneID 904) — migration robust z-score: -0.13; nuclei per well, duplicate mean: 4578; call: inactive
SPTA1 (GeneID 6708) — migration robust z-score: 0.57; nuclei per well, duplicate mean: 5514; call: inactive
SLC23A2 (GeneID 9962) — migration robust z-score: -0.66; nuclei per well, duplicate mean: 7052; call: inactive
ARIH2 (GeneID 10425) — migration robust z-score: -0.36; nuclei per well, duplicate mean: 4329; call: inactive
PCSK1 (GeneID 5122) — migration robust z-score: 0.11; nuclei per well, duplicate mean: 5539; call: inactive
PDX1 (GeneID 3651) — migration robust z-score: -1.12; nuclei per well, duplicate mean: 4808; call: inactive
